Record: PubChem BioAssay AID652272 (Drosophila RNAi Screening Center, 2013)
The deposit covers about 21,000 reagents; below is a random part of those that have a named target and a result. Of all reagents, 503 (2.4%) were called active. 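Raw plate light values, not normalised; calls rest on replicate z-scores that were not deposited; hits include reporter decreases as well as increases.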 No sequences are given here. The record does not give: the amount of reagent, the time to read-out.

Screen: 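Finding fly genes that regulate Hedgehog signal transduction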 (primary screen)
Cells: Drosophila clone 8 (Cl8) cells
Reagent: long dsRNA against Drosophila genes
Measured: 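Firefly light from a Hedgehog-responsive ptc promoter reporter and Renilla reference light, both read on a plate reader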
Scale: firefly Hh reporter signal: higher = more ptc reporter light; Renilla reference signal: higher = more Renilla control light
Call rule: 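Hit when the z-score averaged over two replicates is under -2 or over +3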
Meaning of the calls: active = hit: reporter lowered or raised; inactive = not a hit

| target | dsRNA | firefly Hh reporter signal, replicate 1 | firefly Hh reporter signal, replicate 2 | firefly Hh reporter signal, replicate 3 | Renilla reference signal, replicate 1 | Renilla reference signal, replicate 2 | call |
| --- | --- | --- | --- | --- | --- | --- | --- |
| CG3198 | DRSC18292 | 77372 | 2.30e5 | – | 2957 | 8449 | inactive |
| Ak2 | DRSC04043 | 90379 | 59815 | – | 1456 | 4736 | inactive |
| Vps20 | DRSC04448 | 70247 | 40458 | – | 1603 | 4252 | inactive |
| SmF | DRSC07397 | 60473 | 35370 | – | 1921 | 3376 | inactive |
| CG10116 | DRSC09700 | 68121 | 77987 | – | 2931 | 3204 | inactive |
| CG10581 | DRSC11623 | 91472 | 1.50e5 | – | 3281 | 4309 | inactive |
| UK114 | DRSC01973 | 1.01e5 | 79219 | – | 2992 | 6602 | inactive |
| CG3213 | DRSC00576 | 1.71e5 | 66407 | – | 4291 | 6588 | inactive |
| Atg14 | DRSC14421 | 84183 | 66120 | – | 1724 | 1936 | inactive |
| CG31674 | DRSC03208 | 62327 | 51254 | – | 1287 | 5052 | inactive |
| Cpr65Aw | DRSC08794 | 1.11e5 | 1.86e5 | – | 2875 | 9062 | inactive |
| CG5214 | DRSC15739 | 93049 | 4.96e5 | 1.51e5 | 3648 | 3040 | inactive |
| CG6083 | DRSC10580 | 39396 | 39636 | 75627 | 4509 | 5660 | inactive |
| CG42490 (retired record) | DRSC01649 | 1.22e5 | 2.90e5 | – | 3386 | 12576 | inactive |
| CG3330 | DRSC15477 | 1.17e5 | 67217 | – | 2624 | 2018 | inactive |
| CG8079 | DRSC07070 | 1.23e5 | 1.18e5 | – | 5060 | 4144 | inactive |
| CG8079 | DRSC07071 | 62605 | 64940 | – | 1504 | 4187 | inactive |
| CG12496 | DRSC18602 | 41403 | 2.32e5 | – | 1120 | 8608 | inactive |
| Notum | DRSC09959 | 1.10e5 | – | – | 1650 | 3056 | inactive |
| CG9175 | DRSC03153 | 1.40e5 | 90085 | – | 6264 | 3536 | inactive |
| fuss | DRSC17200 | 1.31e5 | 3.34e5 | – | 5128 | 13142 | inactive |
| CG30046 | DRSC06691 | 1.25e5 | 46576 | – | 3397 | 3328 | inactive |
| CG43394 | DRSC01013 | 4.37e5 | 2.08e5 | – | 22072 | 7916 | inactive |
| Or24a | DRSC00768 | 69706 | 54128 | – | 1408 | 5600 | inactive |
| CG15286 | DRSC01907 | 1.59e5 | 39867 | – | 4024 | 4349 | inactive |
| Kpc1 | DRSC16107 | 1.52e5 | 1.26e5 | – | 6240 | 5319 | inactive |
| CG1578 | DRSC19729 | 1.71e5 | 99552 | – | 3734 | 2514 | inactive |
| CG32198 | DRSC09553 | 1.83e5 | – | – | 3843 | – | inactive |
| CG11227 | DRSC20476 | 1.02e5 | 1.83e5 | – | 4004 | 8213 | inactive |
| CG3347 | DRSC00597 | 1.16e5 | 60338 | – | 2924 | 5776 | inactive |
| Jabba | DRSC06521 | 1.04e5 | 78555 | – | 4640 | 3296 | inactive |
| Orc6 | DRSC07497 | 95337 | 46259 | – | 2226 | 2166 | inactive |
| bora | DRSC10744 | 1.18e5 | 51707 | – | 4544 | 1859 | inactive |
| Idgf6 | DRSC07360 | 1.16e5 | 80509 | – | 4785 | 3676 | inactive |
| Spn88Eb | DRSC16093 | 86850 | 88333 | – | 3834 | 3592 | inactive |
| CG8516 | DRSC16437 | 63016 | 1.08e5 | – | 2058 | 3254 | inactive |
| CG1635 | DRSC15131 | 1.23e5 | 79376 | – | 3190 | 3226 | inactive |
| dtr | DRSC01847 | 1.14e5 | 1.50e5 | – | 3413 | 7217 | inactive |
| CG33278 | DRSC10336 | 38922 | 73091 | – | 5633 | 5889 | inactive |
